Results deposited as PubChem BioAssay AID686943 (Drosophila RNAi Screening Center, 2013)

Purpose: 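Search across the genome for regulators of signalling from receptor tyrosine kinase to ERK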 (primary screen)
Cell system: Drosophila S2R+ haemocyte-like cells expressing YFP-tagged ERK (Rolled)
Reagents: long dsRNA against Drosophila genes
Treatment: insulin stimulation versus unstimulated cells; dose and duration not given
Detection: 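Antibody staining for doubly phosphorylated ERK divided by ERK-YFP signal, as plate z-scores, in insulin-treated and untreated cells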
Reading the numbers: replicate 1, z-score of dpERK with insulin and replicate 2, z-score of dpERK with insulin: higher = more active ERK per ERK-YFP after insulin
The screen tested about 23,000 reagents; shown is an unselected part of those that have a named target and a result. 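Extra replicates exist only for a retested subset of genes; insulin dose and duration not given; both raised and lowered dpERK matter.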 A plus sign joins genes that one reagent is predicted to hit. Further read-outs or replicates are left out here. The record does not give: the amount of reagent, the time to read-out.

Gene	DRSC id	replicate 1, z-score of dpERK with insulin	replicate 2, z-score of dpERK with insulin
CG42792	DRSC01515	1.17	0.44
mbt (mushroom bodies tiny)	DRSC20348	-0.42	0.46
Or85c (Odorant receptor 85c)	DRSC16766	-0.04	-0.16
MagR (Magnetic receptor)	DRSC20092	-0.98	-2.1
Ir11a (Ionotropic receptor 11a)	DRSC19699	-0.17	-0.01
Vajk2	DRSC02540	0.22	0.15
TyrRS (Tyrosyl-tRNA synthetase)	DRSC10430	1.39	0.21
CG4259	DRSC00645	-0.02	0.57
CG15891 + CG15892	DRSC18095	0.67	-0.26
CG15891 + CG15892	DRSC18096	0.08	1.01
CG8343	DRSC04905	0.13	-0.23
CG12194	DRSC00345	0.81	0.05
dati (datilografo)	DRSC17128	-0.91	0.14
dati (datilografo)	DRSC17140	-0.87	-0.21
dati (datilografo)	DRSC17153	0.38	0.34
CG4914	DRSC10458	-0.35	-0.1
CG17683	DRSC21160	0.18	-0.01
pain (painless)	DRSC04273	-0.46	0.21
CG14983	DRSC08441	1.78	1.13
CG15312	DRSC18000	0.21	0.69
CG42376 + cin	DRSC18752	-1.33	0.07
CG17186	DRSC15180	-0.01	0
knrl (knirps-like)	DRSC11892	0.03	0.12
Trm7-32 (tRNA methyltransferase 7-32)	DRSC15741	1.63	0.82
CG33502 + CG32857 + CG32500	DRSC20817	0.61	-0.16
CG33502 + CG32857 + CG32500	DRSC21038	0.43	-0.33
CG33172	DRSC21793	0.49	0.55
CCHa2 (CCHamide-2)	DRSC14835	0.53	0.19
CG42374 + Mettl5	DRSC11085	-0.46	-0.51
CG10366	DRSC02046	0.41	0.48
klar (klarsicht)	DRSC08718	0	-1.14
klar (klarsicht)	DRSC22393	-0.27	-0.28
CG13177	DRSC06303	-0.15	-1.25
CG6790	DRSC16117	-1.18	0.53
CG31076	DRSC16017	0.29	0
Cp38 (Chorion protein 38)	DRSC18453	1.17	0.57
CG5280	DRSC10498	1.03	0.15
CG5280	DRSC22835	-0.21	-0.72
cpa (capping protein alpha)	DRSC04080	0.13	-0.22
exu (exuperantia)	DRSC07615	-0.03	0.65
Cpr67Fa1 (Cuticular protein 67Fa1)	DRSC10932	-0.35	-0.57
chk (chaski)	DRSC04994	0.66	0.68
Rpn13 (Regulatory particle non-ATPase 13)	DRSC06379	1.76	0.91
ND-B14.7 (NADH dehydrogenase (ubiquinone) B14.7 subunit)	DRSC04544	-1.35	-3.58
Cdc42 (Cell division cycle 42)	DRSC20228	-1.16	-2.65
CG32201	DRSC22452	0.07	0.49
be (ben)	DRSC19607	-0.03	0.41
be (ben)	DRSC19944	1.44	0.63
be (ben)	DRSC19945	1.65	0.96
Prosap	DRSC06382	-0.99	0.05
Prosap	DRSC07081	-0.24	-0.12
wb (wing blister)	DRSC01375	-5.86	-4.29
wb (wing blister)	DRSC03634	-0.09	0.38
CG10252	DRSC14221	0.48	-0.33
Cpr50Ca (Cuticular protein 50Ca)	DRSC05454	-0.37	0.55
Cpr50Ca (Cuticular protein 50Ca)	DRSC06372	1.18	0.71
Cpr50Ca (Cuticular protein 50Ca)	DRSC06375	0.39	0.08

Looked up above:
Under “replicate 1, z-score of dpERK with insulin”, CG12194 [DRSC00345] is entered as 0.81
For “replicate 1, z-score of dpERK with insulin”, klar (klarsicht) [DRSC08718] reads 0
Value for Or85c (Odorant receptor 85c) [DRSC16766] in “replicate 2, z-score of dpERK with insulin”: -0.16
CG33502 + CG32857 + CG32500 [DRSC20817], replicate 1, z-score of dpERK with insulin → 0.61
